Taken from: PubChem BioAssay AID1259405 (NCATS, 2018)

Aim: 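Knock-downs that lift recombinant protein yield in hamster ovary cells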 (primary screen)
Cell system: Chinese hamster CHO-K1 ovary cells with stable secreted eGFP expression
Knock-down reagent: single siRNA against mouse genes, 0.8 pmol siRNA per well (2 µl of 400 nM stock)
Time to read-out: 3 days
Measured: 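Per-well intracellular GFP measured by laser scanning cytometry, plus viability from ATP luminescence, each relative to plate median of non-targeting control wells, in %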
Scale: GFP, % of control: higher = more GFP per well, higher productivity; viability (ATP), % of control: higher = more viable cells (more ATP)
Rule for the call: 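Called active when intracellular GFP, relative to negative control, is at or above 120%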
Shown is one part, drawn at random, of about 50,000 reagents tested. Over the whole deposit, about 4,000 (8%) are marked active. 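Mouse siRNA library applied to hamster cells; one well for each siRNA.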 Reagents against one gene are numbered here.

After knock-down of Bcl2l11 (GeneID 12125) #1, the screen gave GFP, % of control 47.7; viability (ATP), % of control 34.3; inactive.
After knock-down of Bcl2l11 (GeneID 12125) #2, the screen gave GFP, % of control 80.9; viability (ATP), % of control 104; inactive.
With knock-down of Bcl2l11 (GeneID 12125) #3, the screen gave GFP, % of control 101; viability (ATP), % of control 111; inactive.
Knock-down of Naa35 (GeneID 78689) #1 gave: GFP, % of control 43.6; viability (ATP), % of control 63.6; inactive.
For Naa35 (GeneID 78689) #2 the deposit lists GFP, % of control 83; viability (ATP), % of control 75.2; inactive.
With knock-down of Naa35 (GeneID 78689) #3, the screen gave GFP, % of control 64.8; viability (ATP), % of control 64.3; inactive.
For Map3k11 (GeneID 26403), the values are GFP, % of control 98.7; viability (ATP), % of control 88.4; inactive.
Knock-down of Msc (GeneID 17681) #1 resulted in: GFP, % of control 44.4; viability (ATP), % of control 52.9; inactive.
Knock-down of Msc (GeneID 17681) #2 gave: GFP, % of control 170; viability (ATP), % of control 130; active.
After knock-down of Msc (GeneID 17681) #3, the record shows GFP, % of control 81; viability (ATP), % of control 106; inactive.
Knock-down of Msc (GeneID 17681) #4 came out at: GFP, % of control 104; viability (ATP), % of control 77.9; inactive.
With knock-down of Msc (GeneID 17681) #5, the screen gave GFP, % of control 107; viability (ATP), % of control 88.3; inactive.
After knock-down of Msc (GeneID 17681) #6, the screen gave GFP, % of control 79.8; viability (ATP), % of control 85; inactive.
Usp45 (GeneID 77593) #1 showed GFP, % of control 71.5; viability (ATP), % of control 46.6; inactive.
With knock-down of Usp45 (GeneID 77593) #2 the results were GFP, % of control 80; viability (ATP), % of control 68.8; inactive.
Usp45 (GeneID 77593) #3 scored GFP, % of control 76.7; viability (ATP), % of control 79.8; inactive.
With knock-down of Crtam (GeneID 54698) #1, the record shows GFP, % of control 51.4; viability (ATP), % of control 54.2; inactive.
Knock-down of Crtam (GeneID 54698) #2 gave: GFP, % of control 114; viability (ATP), % of control 95.1; inactive.
After knock-down of Crtam (GeneID 54698) #3, the record shows GFP, % of control 77; viability (ATP), % of control 66.3; inactive.
Knock-down of Snrnp35 (GeneID 76167) #1 gave: GFP, % of control 24.9; viability (ATP), % of control 35.4; inactive.
Depletion of Snrnp35 (GeneID 76167) #2 gave: GFP, % of control 75.8; viability (ATP), % of control 64.2; inactive.
Knock-down of Snrnp35 (GeneID 76167) #3 resulted in: GFP, % of control 105; viability (ATP), % of control 94.8; inactive.
Gzmd (GeneID 14941) #1 gave GFP, % of control 148; viability (ATP), % of control 76.3; active.
Gzmd (GeneID 14941) #2 showed GFP, % of control 82.9; viability (ATP), % of control 73.4; inactive.
With knock-down of Gzmd (GeneID 14941) #3, the screen gave GFP, % of control 79.8; viability (ATP), % of control 73.4; inactive.
For Bdkrb1 (GeneID 12061) #1 the deposit lists GFP, % of control 92.9; viability (ATP), % of control 68.2; inactive.
Depletion of Bdkrb1 (GeneID 12061) #2 gave: GFP, % of control 77; viability (ATP), % of control 78.9; inactive.
Bdkrb1 (GeneID 12061) #3 scored GFP, % of control 74.4; viability (ATP), % of control 68.2; inactive.
Silencing of Eif1 (GeneID 20918) #1 gave: GFP, % of control 62.8; viability (ATP), % of control 76.1; inactive.
With knock-down of Eif1 (GeneID 20918) #2, the screen gave GFP, % of control 86.8; viability (ATP), % of control 114; inactive.
After knock-down of Eif1 (GeneID 20918) #3, the record shows GFP, % of control 102; viability (ATP), % of control 95.8; inactive.
For Ube2i (GeneID 22196) #1 the deposit lists GFP, % of control 135; viability (ATP), % of control 59; active.
Ube2i (GeneID 22196) #2 showed GFP, % of control 102; viability (ATP), % of control 64.7; inactive.
Ube2i (GeneID 22196) #3 scored GFP, % of control 97.1; viability (ATP), % of control 60.9; inactive.
With knock-down of Tnfrsf8 (GeneID 21941) #1, the screen gave GFP, % of control 101; viability (ATP), % of control 80.1; inactive.
For Tnfrsf8 (GeneID 21941) #2, the values are GFP, % of control 68.7; viability (ATP), % of control 65.7; inactive.
Against Tnfrsf8 (GeneID 21941) #3 the deposit lists GFP, % of control 66.3; viability (ATP), % of control 60.1; inactive.
Against Ppy (GeneID 19064) #1, the entry reads GFP, % of control 55.3; viability (ATP), % of control 84.5; inactive.
Ppy (GeneID 19064) #2 showed GFP, % of control 63.1; viability (ATP), % of control 78.5; inactive.
Silencing of Ppy (GeneID 19064) #3 resulted in: GFP, % of control 60.2; viability (ATP), % of control 63.1; inactive.

Laid out differently: results already given
Usp45 (GeneID 77593) #3
- GFP, % of control: 76.7
- viability (ATP), % of control: 79.8
- call: inactive

Crtam (GeneID 54698) #1
- GFP, % of control: 51.4
- viability (ATP), % of control: 54.2
- call: inactive

Crtam (GeneID 54698) #2
- GFP, % of control: 114
- viability (ATP), % of control: 95.1
- call: inactive
